Results reported in patent publication US4308256A, “Method of inducing analgesia” (American Home Products Corporation, priority 1980, dated 1981).
This continues a long series; more values of the same kind are listed elsewhere.

Test system: male Charles River rats
Assay: D'Amour-Smith rat tail-flick procedure (radiant heat, 8 second cut-off), intraventricular injection
Format: in vivo
Procedure: Intraventricular cannulae, made of 27-gauge stainless steel tubing, are implanted in 300-400 g. male Charles River rats under pentobarbital anesthesia. After a recovery period of at least one week, the rats are restrained in a wire-mesh cylindrical chamber so that the tip of the tail can be positioned at the focal point of a radiant heat source. After an acclimatistation period of 5 minutes, the lamp is turned on and an electric clock activated. Movement of the tip of the tail exposes a photocell to the lamp, which turns off the thermal stimulus and stops the clock. If a rat fails to move its tail within 8 seconds, the heat is automatically turned off to prevent blistering. The intensity of the lamp is adjusted in each case to produce at least three baseline tail-flick latencies of 2.5-4.5 seconds. Tests are initially made every 2 minutes, then every 5 minutes and finally every 15 minutes.
Initially, using the above outlined procedure, the effects of intraventricularly administered leucine-enkephalin are tested in rats according to the above procedure.
The rat tail flick procedure is repeated, first by the simultaneous intraventricular injection of both leucine-enkephalin and bestatin and then by the initial injection of bestatin followed one hour later by the injection of leucine-enkephalin.
The above procedure is repeated again, however, the bestatin is administered first and then one hour later the leucine-enkephalin is administered.
The effects of bestatin alone are tested in rats according to the rat tail flick procedure.

Measured: Tail-flick latency

CC(C)C[C@H](NC(=O)[C@@H](O)[C@H](N)Cc1ccccc1)C(=O)O [bestatin, [(2S,3R)-3-amino-2-hydroxy-4-phenylbutanoyl]-L-leucine]
6.41 s: 200 μg bestatin alone into lateral ventricle, Rat 1, 14 min
7.39 s: 200 μg bestatin alone into lateral ventricle, Rat 1, 20 min
4.24 s: 200 μg bestatin alone into lateral ventricle, Rat 1, 6 min | 200 μg bestatin alone into lateral ventricle, Rat 1, 42 min
3.26 s: 200 μg bestatin alone into lateral ventricle, Rat 1, 36 min
7.09 s: 200 μg bestatin alone into lateral ventricle, Rat 1, 26 min
3.51 s: 200 μg bestatin alone into lateral ventricle, Rat 1, 40 min
2.81 s: 200 μg bestatin alone into lateral ventricle, Rat 1, 44 min
8.00 s: 200 μg bestatin alone into lateral ventricle, Rat 1, 8 min | 200 μg bestatin alone into lateral ventricle, Rat 1, 10 min | 200 μg bestatin alone into lateral ventricle, Rat 1, 12 min | 200 μg bestatin alone into lateral ventricle, Rat 1, 16 min | 200 μg bestatin alone into lateral ventricle, Rat 1, 18 min | 200 μg bestatin alone into lateral ventricle, Rat 1, 22 min | 200 μg bestatin alone into lateral ventricle, Rat 1, 24 min | 200 μg bestatin alone into lateral ventricle, Rat 1, 28 min | 200 μg bestatin alone into lateral ventricle, Rat 1, 30 min | 400 μg bestatin alone into lateral ventricle, Rat 1, 4 min | 400 μg bestatin alone into lateral ventricle, Rat 1, 6 min | 400 μg bestatin alone into lateral ventricle, Rat 1, 8 min | 400 μg bestatin alone into lateral ventricle, Rat 1, 10 min | 400 μg bestatin alone into lateral ventricle, Rat 1, 12 min | 400 μg bestatin alone into lateral ventricle, Rat 1, 14 min | 400 μg bestatin alone into lateral ventricle, Rat 1, 16 min | 400 μg bestatin alone into lateral ventricle, Rat 1, 18 min | 400 μg bestatin alone into lateral ventricle, Rat 1, 20 min | 400 μg bestatin alone into lateral ventricle, Rat 1, 22 min | 400 μg bestatin alone into lateral ventricle, Rat 1, 24 min | 400 μg bestatin alone into lateral ventricle, Rat 1, 26 min | 400 μg bestatin alone into lateral ventricle, Rat 1, 28 min | 400 μg bestatin alone into lateral ventricle, Rat 1, 30 min | 400 μg bestatin alone into lateral ventricle, Rat 1, 35 min | 400 μg bestatin alone into lateral ventricle, Rat 1, 40 min | 400 μg bestatin alone into lateral ventricle, Rat 1, 45 min | 400 μg bestatin alone into lateral ventricle, Rat 1, 50 min | 400 μg bestatin alone into lateral ventricle, Rat 1, 55 min | 400 μg bestatin alone into lateral ventricle, Rat 1, 60 min | 400 μg bestatin alone into lateral ventricle, Rat 1, 75 min | 400 μg bestatin alone into lateral ventricle, Rat 1, 90 min | 400 μg bestatin alone into lateral ventricle, Rat 1, 105 min | 400 μg bestatin alone into lateral ventricle, Rat 1, 120 min | 400 μg bestatin alone into lateral ventricle, Rat 1, 135 min | 400 μg bestatin alone into lateral ventricle, Rat 1, 150 min | 400 μg bestatin alone into lateral ventricle, Rat 1, 165 min | 400 μg bestatin alone into lateral ventricle, Rat 1, 180 min | 400 μg bestatin alone into lateral ventricle, Rat 1, 195 min
3.56 s: 200 μg bestatin alone into lateral ventricle, Rat 1, 32 min
2.64 s: 200 μg bestatin alone into lateral ventricle, Rat 1, 38 min
4.07 s: 400 μg bestatin alone into lateral ventricle, Rat 1, 2 min
